PubChem BioAssay AID1159578, Peter MacCallum Cancer Centre – 2015

Test: 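Genome-wide hunt for genes controlling movement of lymphatic endothelial cells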 (primary screen)
System: human lymphatic endothelial cells
Knock-down reagent: siRNA pool against human genes, 40 nM
Time to read-out: 48 h after transfection
Measured: 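High-content imaging of dye-stained cells in a scratch assay measures filled wound area and nuclei per well; duplicate means given as ratio to mock and robust z-score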
Scale: migration robust z-score: higher = faster migration into the scratch; nuclei per well: higher = more cells in the well
Hit rule: 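Migration changed when robust z exceeds 2 or falls below -2 and mean nuclei number is at least 3300; otherwise not called changed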
Meaning of the calls: active = migration changed; inactive = no migration change, or too few cells
Shown is an unselected part of about 18,000 reagents tested. In the full data, about 1,030 (5.7%) were called active. 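Inactive calls also include pools with fewer than 3300 nuclei, whose migration was not assessed.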 Raw values vary from plate to plate and are shown uncorrected. Not all columns of the deposit are shown. No sequences are given here.

PUM2 — migration robust z-score = 1.52; migration class with cell-count check = migration z between -2 and 2; enough cells; nuclei per well, duplicate mean = 6640; Call = inactive
PNMA3 — migration robust z-score = 0.79; migration class with cell-count check = migration z between -2 and 2; enough cells; nuclei per well, duplicate mean = 5202; Call = inactive
TBC1D7 — migration robust z-score = 0.08; migration class with cell-count check = migration z between -2 and 2; enough cells; nuclei per well, duplicate mean = 6527; Call = inactive
ABHD2 — migration robust z-score = 0.49; migration class with cell-count check = migration z between -2 and 2; enough cells; nuclei per well, duplicate mean = 5624; Call = inactive
TSPYL5 — migration robust z-score = 0.34; migration class with cell-count check = migration z between -2 and 2; enough cells; nuclei per well, duplicate mean = 6215; Call = inactive
UQCRB — migration robust z-score = 0.93; migration class with cell-count check = migration z between -2 and 2; enough cells; nuclei per well, duplicate mean = 5452; Call = inactive
SPRR2G — migration robust z-score = 0.26; migration class with cell-count check = migration z between -2 and 2; enough cells; nuclei per well, duplicate mean = 6760; Call = inactive
FOXL2 — migration robust z-score = 0.68; migration class with cell-count check = migration z between -2 and 2; enough cells; nuclei per well, duplicate mean = 6228; Call = inactive
ASPN — migration robust z-score = 0.55; migration class with cell-count check = migration z between -2 and 2; enough cells; nuclei per well, duplicate mean = 6018; Call = inactive
LANCL1 — migration robust z-score = 1.06; migration class with cell-count check = migration z between -2 and 2; enough cells; nuclei per well, duplicate mean = 4998; Call = inactive
CLDN12 — migration robust z-score = 1.03; migration class with cell-count check = migration z between -2 and 2; enough cells; nuclei per well, duplicate mean = 6084; Call = inactive
MRPL9 — migration robust z-score = 2.02; migration class with cell-count check = migration z above 2; enough cells; nuclei per well, duplicate mean = 5291; Call = active
BCL7B — migration robust z-score = 0.54; migration class with cell-count check = migration z between -2 and 2; enough cells; nuclei per well, duplicate mean = 5692; Call = inactive
AVPR1A — migration robust z-score = -0.86; migration class with cell-count check = migration z between -2 and 2; enough cells; nuclei per well, duplicate mean = 4630; Call = inactive
OXNAD1 — migration robust z-score = 1.82; migration class with cell-count check = migration z between -2 and 2; enough cells; nuclei per well, duplicate mean = 6736; Call = inactive
RPL27 — migration robust z-score = -0.48; migration class with cell-count check = migration z between -2 and 2; enough cells; nuclei per well, duplicate mean = 3760; Call = inactive
STARD3NL — migration robust z-score = 1.6; migration class with cell-count check = migration z between -2 and 2; enough cells; nuclei per well, duplicate mean = 7016; Call = inactive
PLCXD2 — migration robust z-score = -0.39; migration class with cell-count check = migration z between -2 and 2; enough cells; nuclei per well, duplicate mean = 6764; Call = inactive
CDC14B — migration robust z-score = -0.9; migration class with cell-count check = migration z between -2 and 2; enough cells; nuclei per well, duplicate mean = 5152; Call = inactive
SCD — migration robust z-score = -1.79; migration class with cell-count check = migration z between -2 and 2; enough cells; nuclei per well, duplicate mean = 6098; Call = inactive
C12orf76 — migration robust z-score = 0.94; migration class with cell-count check = migration z between -2 and 2; enough cells; nuclei per well, duplicate mean = 5046; Call = inactive
ZFTRAF1 — migration robust z-score = 1.26; migration class with cell-count check = migration z between -2 and 2; enough cells; nuclei per well, duplicate mean = 6155; Call = inactive
ZNF665 — migration robust z-score = 0.58; migration class with cell-count check = migration z between -2 and 2; enough cells; nuclei per well, duplicate mean = 6366; Call = inactive
DERL3 — migration robust z-score = -0.2; migration class with cell-count check = migration z between -2 and 2; enough cells; nuclei per well, duplicate mean = 5710; Call = inactive
AFF3 — migration robust z-score = 1.38; migration class with cell-count check = migration z between -2 and 2; enough cells; nuclei per well, duplicate mean = 6136; Call = inactive
GSTA4 — migration robust z-score = -0.18; migration class with cell-count check = migration z between -2 and 2; enough cells; nuclei per well, duplicate mean = 5556; Call = inactive
APCDD1L — migration robust z-score = -1.13; migration class with cell-count check = migration z between -2 and 2; enough cells; nuclei per well, duplicate mean = 6272; Call = inactive
